Results taken from the supplement of paper PMC10849652.
The list shows a part of the results. Residues, ends and D or L forms follow the SMILES beside them. *: point of attachment. Cbz = O=C(OCc1ccccc1)*

Amino acid sequences for entries named in this document (tags omitted). A change or cut given only in a name is not applied to a line headed by its entry.
UniProt P27797, whole entry, looked up: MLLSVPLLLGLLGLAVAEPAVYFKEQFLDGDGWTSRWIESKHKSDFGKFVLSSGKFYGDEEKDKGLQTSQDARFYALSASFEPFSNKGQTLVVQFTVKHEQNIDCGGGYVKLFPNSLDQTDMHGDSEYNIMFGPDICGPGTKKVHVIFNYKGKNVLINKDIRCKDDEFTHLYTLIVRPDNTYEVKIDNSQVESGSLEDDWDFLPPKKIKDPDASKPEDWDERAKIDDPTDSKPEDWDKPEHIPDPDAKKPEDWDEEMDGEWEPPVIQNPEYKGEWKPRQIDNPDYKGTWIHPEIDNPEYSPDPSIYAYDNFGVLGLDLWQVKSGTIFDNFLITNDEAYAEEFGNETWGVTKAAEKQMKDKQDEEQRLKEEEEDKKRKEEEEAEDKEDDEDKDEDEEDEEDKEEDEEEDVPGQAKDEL
UniProt O43852: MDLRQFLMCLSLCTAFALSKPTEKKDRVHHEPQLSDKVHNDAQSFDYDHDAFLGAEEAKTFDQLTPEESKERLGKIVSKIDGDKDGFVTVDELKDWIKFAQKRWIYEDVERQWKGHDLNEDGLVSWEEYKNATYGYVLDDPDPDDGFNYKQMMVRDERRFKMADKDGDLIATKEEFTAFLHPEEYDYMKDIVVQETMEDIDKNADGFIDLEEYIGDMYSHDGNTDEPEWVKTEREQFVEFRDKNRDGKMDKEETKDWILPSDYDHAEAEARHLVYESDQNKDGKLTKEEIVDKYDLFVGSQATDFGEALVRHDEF
UniProt P49069: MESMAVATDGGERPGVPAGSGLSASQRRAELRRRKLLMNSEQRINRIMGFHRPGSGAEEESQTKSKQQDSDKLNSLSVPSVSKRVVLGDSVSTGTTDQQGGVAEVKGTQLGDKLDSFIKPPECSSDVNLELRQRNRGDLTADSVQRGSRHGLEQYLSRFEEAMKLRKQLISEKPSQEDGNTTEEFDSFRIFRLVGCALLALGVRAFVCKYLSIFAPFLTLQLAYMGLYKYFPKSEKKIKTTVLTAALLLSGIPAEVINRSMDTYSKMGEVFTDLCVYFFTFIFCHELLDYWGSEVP
UniProt O95873: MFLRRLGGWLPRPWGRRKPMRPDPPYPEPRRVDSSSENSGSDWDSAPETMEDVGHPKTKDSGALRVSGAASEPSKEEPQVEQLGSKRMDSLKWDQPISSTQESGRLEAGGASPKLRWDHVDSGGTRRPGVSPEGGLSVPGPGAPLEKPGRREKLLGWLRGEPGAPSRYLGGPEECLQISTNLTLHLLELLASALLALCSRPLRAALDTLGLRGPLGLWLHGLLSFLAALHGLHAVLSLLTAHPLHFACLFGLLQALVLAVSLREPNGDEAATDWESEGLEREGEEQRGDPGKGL
UniProt Q9Y2G2: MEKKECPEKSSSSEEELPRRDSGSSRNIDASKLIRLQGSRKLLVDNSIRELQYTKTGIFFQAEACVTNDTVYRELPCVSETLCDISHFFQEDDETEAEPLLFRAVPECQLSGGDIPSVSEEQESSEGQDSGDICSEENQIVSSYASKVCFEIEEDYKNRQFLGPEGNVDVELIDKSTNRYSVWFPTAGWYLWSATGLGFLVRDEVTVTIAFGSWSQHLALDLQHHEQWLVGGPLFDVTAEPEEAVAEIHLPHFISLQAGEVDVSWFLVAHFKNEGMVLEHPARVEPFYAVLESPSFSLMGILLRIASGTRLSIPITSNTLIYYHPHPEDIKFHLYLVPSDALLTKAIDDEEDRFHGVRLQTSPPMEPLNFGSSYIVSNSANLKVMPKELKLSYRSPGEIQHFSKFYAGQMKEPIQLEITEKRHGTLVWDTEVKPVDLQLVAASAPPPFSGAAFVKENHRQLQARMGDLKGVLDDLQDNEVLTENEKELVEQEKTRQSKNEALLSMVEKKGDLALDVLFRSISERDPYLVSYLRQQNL
UniProt Q9NZ63: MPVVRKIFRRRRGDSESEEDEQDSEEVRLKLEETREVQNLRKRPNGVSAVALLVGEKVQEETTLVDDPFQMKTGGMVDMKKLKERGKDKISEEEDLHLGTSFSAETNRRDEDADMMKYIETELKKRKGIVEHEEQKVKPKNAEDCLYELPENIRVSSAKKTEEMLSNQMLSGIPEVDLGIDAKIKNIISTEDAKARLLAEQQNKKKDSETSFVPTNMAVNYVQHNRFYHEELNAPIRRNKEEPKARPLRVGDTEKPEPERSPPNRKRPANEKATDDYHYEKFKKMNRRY
UniProt O43709: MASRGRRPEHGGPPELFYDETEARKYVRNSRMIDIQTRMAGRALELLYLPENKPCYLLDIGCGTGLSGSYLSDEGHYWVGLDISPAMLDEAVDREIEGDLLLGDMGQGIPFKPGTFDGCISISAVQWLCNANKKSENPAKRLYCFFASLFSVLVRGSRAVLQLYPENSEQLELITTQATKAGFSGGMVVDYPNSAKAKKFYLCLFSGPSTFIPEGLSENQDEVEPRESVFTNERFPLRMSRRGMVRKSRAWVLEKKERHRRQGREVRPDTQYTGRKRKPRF
UniProt Q14444, whole entry, looked up: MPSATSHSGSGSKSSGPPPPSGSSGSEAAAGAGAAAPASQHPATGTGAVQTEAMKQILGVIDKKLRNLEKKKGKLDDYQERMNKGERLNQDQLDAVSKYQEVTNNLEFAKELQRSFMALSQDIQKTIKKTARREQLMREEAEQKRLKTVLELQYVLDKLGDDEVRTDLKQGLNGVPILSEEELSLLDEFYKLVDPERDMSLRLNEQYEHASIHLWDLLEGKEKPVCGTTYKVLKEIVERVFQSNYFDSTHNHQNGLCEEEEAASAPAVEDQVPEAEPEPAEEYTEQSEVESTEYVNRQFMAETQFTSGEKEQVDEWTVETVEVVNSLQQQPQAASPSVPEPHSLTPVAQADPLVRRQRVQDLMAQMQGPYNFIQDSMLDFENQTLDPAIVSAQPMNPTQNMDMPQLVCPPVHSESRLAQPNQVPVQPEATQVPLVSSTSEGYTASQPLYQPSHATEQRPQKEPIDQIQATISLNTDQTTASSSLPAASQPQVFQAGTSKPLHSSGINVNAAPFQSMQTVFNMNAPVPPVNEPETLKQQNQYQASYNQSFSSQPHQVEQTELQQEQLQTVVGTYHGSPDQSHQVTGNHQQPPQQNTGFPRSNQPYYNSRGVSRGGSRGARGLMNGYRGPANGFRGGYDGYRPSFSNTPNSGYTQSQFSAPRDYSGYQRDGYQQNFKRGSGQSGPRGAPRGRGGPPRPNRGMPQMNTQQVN
UniProt Q8IXQ3: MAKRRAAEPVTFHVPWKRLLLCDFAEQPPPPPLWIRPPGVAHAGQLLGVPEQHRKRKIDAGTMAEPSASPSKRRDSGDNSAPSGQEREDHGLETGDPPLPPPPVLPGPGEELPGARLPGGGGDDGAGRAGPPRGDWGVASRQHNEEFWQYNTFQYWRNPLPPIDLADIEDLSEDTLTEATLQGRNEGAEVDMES
UniProt Q86YS7: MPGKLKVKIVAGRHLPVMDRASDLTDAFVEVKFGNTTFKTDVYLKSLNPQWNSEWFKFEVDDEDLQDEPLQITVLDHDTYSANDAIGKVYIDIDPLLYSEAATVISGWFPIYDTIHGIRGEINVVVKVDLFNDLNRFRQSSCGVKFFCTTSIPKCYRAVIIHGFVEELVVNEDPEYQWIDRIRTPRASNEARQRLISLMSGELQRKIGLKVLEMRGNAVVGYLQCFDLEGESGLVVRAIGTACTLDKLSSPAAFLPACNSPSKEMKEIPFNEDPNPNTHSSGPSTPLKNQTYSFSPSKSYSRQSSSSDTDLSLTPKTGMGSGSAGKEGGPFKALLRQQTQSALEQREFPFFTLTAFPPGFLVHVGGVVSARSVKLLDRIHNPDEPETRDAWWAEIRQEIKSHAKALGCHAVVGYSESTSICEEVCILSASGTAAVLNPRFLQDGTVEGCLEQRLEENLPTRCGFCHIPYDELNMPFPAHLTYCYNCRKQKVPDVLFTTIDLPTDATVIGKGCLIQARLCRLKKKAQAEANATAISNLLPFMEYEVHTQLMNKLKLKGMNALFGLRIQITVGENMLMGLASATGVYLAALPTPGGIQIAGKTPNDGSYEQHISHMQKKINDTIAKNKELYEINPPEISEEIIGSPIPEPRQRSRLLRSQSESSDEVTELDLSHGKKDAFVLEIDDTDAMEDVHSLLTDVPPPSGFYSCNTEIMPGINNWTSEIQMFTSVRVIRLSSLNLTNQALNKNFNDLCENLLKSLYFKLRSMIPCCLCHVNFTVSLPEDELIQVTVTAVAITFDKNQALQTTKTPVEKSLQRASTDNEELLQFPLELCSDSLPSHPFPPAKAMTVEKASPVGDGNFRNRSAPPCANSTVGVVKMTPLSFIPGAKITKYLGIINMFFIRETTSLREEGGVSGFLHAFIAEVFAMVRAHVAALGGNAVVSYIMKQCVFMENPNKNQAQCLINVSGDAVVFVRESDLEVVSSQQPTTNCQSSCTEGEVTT
UniProt Q96K31: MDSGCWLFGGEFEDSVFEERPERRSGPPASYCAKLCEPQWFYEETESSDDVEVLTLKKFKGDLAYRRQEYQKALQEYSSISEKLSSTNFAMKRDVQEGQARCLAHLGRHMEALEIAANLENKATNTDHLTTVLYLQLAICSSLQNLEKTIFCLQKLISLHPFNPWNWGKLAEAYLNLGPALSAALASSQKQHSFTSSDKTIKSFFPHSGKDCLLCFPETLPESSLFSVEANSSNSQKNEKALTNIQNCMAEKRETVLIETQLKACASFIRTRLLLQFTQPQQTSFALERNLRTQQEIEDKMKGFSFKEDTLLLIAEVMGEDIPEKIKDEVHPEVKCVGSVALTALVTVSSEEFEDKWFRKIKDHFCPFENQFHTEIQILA
UniProt Q9H425: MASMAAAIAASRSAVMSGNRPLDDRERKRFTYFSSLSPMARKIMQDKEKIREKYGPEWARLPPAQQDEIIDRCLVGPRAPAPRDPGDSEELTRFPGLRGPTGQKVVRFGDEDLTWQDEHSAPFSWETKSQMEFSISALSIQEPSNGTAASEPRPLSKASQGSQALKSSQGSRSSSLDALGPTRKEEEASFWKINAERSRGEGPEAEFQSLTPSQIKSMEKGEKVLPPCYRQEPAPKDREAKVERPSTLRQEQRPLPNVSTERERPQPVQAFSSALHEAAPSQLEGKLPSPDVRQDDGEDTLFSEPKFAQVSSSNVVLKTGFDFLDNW
UniProt O43684, whole entry, looked up: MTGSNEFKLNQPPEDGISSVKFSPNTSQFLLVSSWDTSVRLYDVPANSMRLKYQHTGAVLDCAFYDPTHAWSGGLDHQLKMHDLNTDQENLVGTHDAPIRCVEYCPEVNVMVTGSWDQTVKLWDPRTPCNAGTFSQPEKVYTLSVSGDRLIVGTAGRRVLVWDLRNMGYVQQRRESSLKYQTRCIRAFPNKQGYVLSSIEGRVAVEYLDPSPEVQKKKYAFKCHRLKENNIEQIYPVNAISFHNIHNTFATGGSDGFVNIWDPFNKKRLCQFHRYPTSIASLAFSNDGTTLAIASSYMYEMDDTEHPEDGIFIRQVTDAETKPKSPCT
UniProt Q9BVC5: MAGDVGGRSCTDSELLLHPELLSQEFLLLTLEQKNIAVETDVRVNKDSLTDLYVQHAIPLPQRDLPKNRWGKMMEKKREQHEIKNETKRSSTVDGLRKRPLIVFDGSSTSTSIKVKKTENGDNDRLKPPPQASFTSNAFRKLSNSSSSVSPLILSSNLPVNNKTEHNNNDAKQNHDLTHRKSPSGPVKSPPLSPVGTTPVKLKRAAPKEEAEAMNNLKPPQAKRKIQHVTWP
UniProt Q9Y426: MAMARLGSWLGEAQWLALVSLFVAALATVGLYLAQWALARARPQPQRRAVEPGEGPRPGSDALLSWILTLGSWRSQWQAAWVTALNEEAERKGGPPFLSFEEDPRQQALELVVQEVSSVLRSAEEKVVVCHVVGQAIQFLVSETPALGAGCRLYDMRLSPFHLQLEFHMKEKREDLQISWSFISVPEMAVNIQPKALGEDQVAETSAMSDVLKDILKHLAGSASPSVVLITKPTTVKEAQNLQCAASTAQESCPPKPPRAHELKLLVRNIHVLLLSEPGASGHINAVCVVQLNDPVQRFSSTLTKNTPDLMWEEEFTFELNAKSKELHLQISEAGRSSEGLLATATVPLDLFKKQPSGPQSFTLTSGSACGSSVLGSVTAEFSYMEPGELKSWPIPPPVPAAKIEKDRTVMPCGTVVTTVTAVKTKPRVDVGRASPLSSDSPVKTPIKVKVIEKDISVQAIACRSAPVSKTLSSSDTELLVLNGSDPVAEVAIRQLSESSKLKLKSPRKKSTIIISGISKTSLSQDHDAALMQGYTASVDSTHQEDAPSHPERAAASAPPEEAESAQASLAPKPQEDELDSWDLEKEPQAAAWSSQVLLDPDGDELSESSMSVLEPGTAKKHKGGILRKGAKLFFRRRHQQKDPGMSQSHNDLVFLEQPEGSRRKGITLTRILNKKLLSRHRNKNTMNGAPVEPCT

What was measured:
Test in all cases: log2 fold change, soluble protein after heating vs DMSO (PISA); higher = thermal stabilisation; K562 cells, 10 uM, 30 min; active = over 0.2 and 3.5 SD of the protein, either way, in both replicates (recomputed)
[1] = compound: C1COCCN1CCN2C3=CC=CC=C3N=C2NC(=O)C4=CC(=CC=C4)[N+](=O)[O-] [IRAK-1-4 Inhibitor I]
In short: (§1)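 For each measurement, 10 μM compound was applied for 30 min to K562 cells at 2×10^6 cells/mL. Aliquots were heated for 3 min across 48°C-58°C, pooled, and extracted in PBS with 0.5% NP-40 at 4°C; the supernatant after 21,000xg for 90 min was soluble protein. This was quantified by TMTpro 16plex LC-MS/MS with channel sums equalised, and thermal stability was reported relative to control samples from duplicates, on a log2 fold-change scale.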

[2] = compound: C=CC(=O)N1CCC[C@@H](n2nc(-c3ccc(Oc4ccccc4)cc3)c3c(N)ncnc32)C1 [ibrutinib]
In short: as §1

[3] = compound: CC(=O)c1cnc2ccc(-c3cc(Cl)c(O)c(Cl)c3)nc2c1N[C@H]1CC[C@H](CN(C)C)CC1
In short: as §1

[4] = compound: CC(C)(C)Cn1c(N)nc2ccc(-c3[nH]c(C(C)(C)C)nc3-c3ccc(F)cc3)nc21 [ralimetinib]
In short: as §1

[5] = compound: CC(C)(O)CC(=O)NCCn1ccc2ncnc(Nc3ccc(Oc4cccc(C(F)(F)F)c4)c(Cl)c3)c21
In short: as §1

[6] = compound: CC(C)C1=C2N=C(C=C(N2N=C1)NCC3=CC=CC=C3)NCCCCCCN
In short: as §1

[7] = compound: CC(C)C[C@@H](C=O)NC(=O)[C@H](CC(C)C)NC(=O)[C@H](CC(C)C)NC(=O)OCc1ccccc1
In short: as §1

[8] = compound: CC(C)N(C[C@H]1O[C@@H](n2cnc3c(N)ncnc32)[C@H](O)[C@@H]1O)[C@H]1C[C@@H](CCc2nc3cc(C(C)(C)C)ccc3[nH]2)C1 [pinometostat]
In short: as §1

[9] = compound: CC1=C(C(CC(=O)N1)C2=CC=C(C=C2)C(F)(F)F)C(=O)NC3=C(C=C4C(=C3)C=NN4)F
In short: as §1

[10] = compound: CC1=C(C2=C(C=C1)C(=O)C3=CC=CC=C3N2CCCN)C
In short: as §1

[11] = compound: CC1=C(C=C(C=C1)NC(=O)C2=CC(=CC=C2)C(C)(C)C#N)NC3=CC4=C(C=C3)N=CN(C4=O)C
In short: as §1

[12] = compound: CC1=C(C=C(C=C1)NC(=O)C2=CC(=CC=C2)N(C)C)NC(=O)C3=CC=C(C=C3)O
In short: as §1

[13] = compound: CC1=CC=C(C=C1)SC2=C3C=C(SC3=CN=C2)C(=O)N
In short: as §1

[14] = compound: CC1=NC(=CC=C1)C2=C(N=C(N2)C(C)(C)C)C3=CC4=NC=CN=C4C=C3
In short: as §1

[15] = compound: CCCCN(Cc1ccc(C(=O)NO)cc1)C(=O)Nc1ccccc1 [Nexturastat A]
In short: as §1

[16] = compound: CCCS(=O)(=O)Nc1ccc(F)c(C(=O)c2c[nH]c3ncc(-c4ccc(Cl)cc4)cc23)c1F [vemurafenib]
In short: as §1

[17] = compound: CCCS(=O)(=O)Nc1ccc(F)c(C(=O)c2c[nH]c3ncc(Cl)cc23)c1F
In short: as §1

[18] = compound: CCCc1cc(C)[nH]c(=O)c1CNC(=O)c1cc(-c2ccnc(N3CCN(C)CC3)c2)cc2c1cnn2C(C)C
In short: as §1

[19] = compound: CCN(CC)Cc1ccc2cc(COC(=O)Nc3ccc(C(=O)NO)cc3)ccc2c1 [givinostat]
In short: as §1

[20] = compound: CCN(CCCOc1ccc2c(Nc3cc(CC(=O)Nc4cccc(F)c4)[nH]n3)ncnc2c1)CCOP(=O)(O)O [barasertib]
In short: as §1

Measured: log2 fold change

CALR (UniProt P27797)
inactive: [1] 0.016 | [2] -0.007 | [3] 0.019 | [4] -0.003 | [5] -0.002 | [6] -0.02 | [7] -0.003 | [8] 0.022 | [9] 0.019 | [10] -0.037 | [11] 0.02 | [12] 0.005 | [13] -0.052 | [14] -0.029 | [15] 0.013 | [16] -0.03 | [17] -0.062 | [18] 0.125 | [19] -0.028 | [20] 0.02

CALU isoform 3 (UniProt O43852)
inactive: [1] 0.046 | [2] -0.016 | [3] 0.01 | [4] -0.037 | [5] 0.024 | [6] 0.068 | [7] -0.011 | [8] -0.026 | [9] 0.024 | [10] -0.052 | [11] -0.023 | [12] 0.016 | [13] -0.013 | [14] -0.01 | [15] -0.053 | [16] -0.008 | [17] -0.035 | [18] -0.005 | [19] -0.007 | [20] -0.014

CAMLG (UniProt P49069)
inactive: [1] 0.027 | [2] -0.005 | [3] -0.009 | [4] -0.04 | [5] 0.024 | [6] 0.046 | [7] 0.019 | [8] -0.029 | [9] -0.018 | [10] 0.021 | [11] 0.009 | [12] -0.054 | [13] 0.01 | [14] 0.028 | [15] -0.022 | [16] -0.013 | [17] 0.013 | [18] -0.024 | [19] -0.024 | [20] 0.002

C6orf47 (UniProt O95873)
inactive: [1] 0.044 | [2] 0 | [3] 0.037 | [4] -0.098 | [5] 0.009 | [6] -0.047 | [7] -0.019 | [8] -0.057 | [9] 0.017 | [10] 0.008 | [11] 0 | [12] 0.003 | [13] -0.042 | [14] 0.001 | [15] -0.108 | [16] -0.053 | [17] -0.019 | [18] -0.208 | [19] -0.025 | [20] 0.013

Quoted at random: 2 entries already listed
CALU isoform 3 (UniProt O43852)
inactive: [1] 0.046 | [2] -0.016 | [3] 0.01 | [4] -0.037 | [5] 0.024 | [6] 0.068 | [7] -0.011 | [8] -0.026 | [9] 0.024 | [10] -0.052 | [11] -0.023 | [12] 0.016 | [13] -0.013 | [14] -0.01 | [15] -0.053 | [16] -0.008 | [17] -0.035 | [18] -0.005 | [19] -0.007 | [20] -0.014

CAMLG (UniProt P49069)
inactive: [1] 0.027 | [2] -0.005 | [3] -0.009 | [4] -0.04 | [5] 0.024 | [6] 0.046 | [7] 0.019 | [8] -0.029 | [9] -0.018 | [10] 0.021 | [11] 0.009 | [12] -0.054 | [13] 0.01 | [14] 0.028 | [15] -0.022 | [16] -0.013 | [17] 0.013 | [18] -0.024 | [19] -0.024 | [20] 0.002

Further results follow:

CARD8 isoform 5 (UniProt Q9Y2G2)
inactive: [1] 0.032 | [2] 0.11 | [3] -0.049 | [4] 0.005 | [5] -0.055 | [6] 0.08 | [7] -0.011 | [8] -0.015 | [9] 0.06 | [10] -0.003 | [11] -0.117 | [12] -0.216 | [13] -0.316 | [14] 0.003 | [15] 0.135 | [16] 0.042 | [17] -0.67 | [18] 0.094 | [19] -0.006 | [20] 0.012

C9orf78 (UniProt Q9NZ63)
inactive: [1] 0.058 | [2] -0.01 | [3] 0.084 | [4] -0.008 | [5] 0.007 | [6] 0.098 | [7] 0.001 | [8] -0.051 | [9] 0.016 | [10] -0.028 | [11] -0.005 | [12] 0.026 | [13] 0.008 | [14] 0.023 | [15] -0.026 | [16] -0.016 | [17] -0.003 | [18] -0.026 | [19] -0.037 | [20] 0.008

BUD23 isoform 3 (UniProt O43709)
inactive: [1] 0.001 | [2] -0.015 | [3] -0.064 | [4] 0.071 | [5] 0.007 | [6] -0.054 | [7] 0.11 | [8] 0.106 | [9] -0.032 | [10] 0.032 | [11] 0.041 | [12] 0.013 | [13] -0.067 | [14] -0.055 | [15] -0.005 | [16] -0.034 | [17] -0.071 | [18] 0.038 | [19] 0.015 | [20] 0.002

CAPRIN1 (UniProt Q14444)
inactive: [1] -0.202 | [2] 0.066 | [3] 0.092 | [4] 0.046 | [5] 0.106 | [6] 0.014 | [7] 0.003 | [8] 0.006 | [9] 0.015 | [10] -0.162 | [11] 0.059 | [12] 0.017 | [13] -0.062 | [14] 0 | [15] 0.183 | [16] -0.055 | [17] -0.059 | [18] 0.094 | [19] -0.035 | [20] -0.167

C9orf40 (UniProt Q8IXQ3)
inactive: [1] 0.044 | [2] 0.023 | [3] -0.018 | [4] -0.015 | [5] 0.097 | [6] 0.013 | [7] 0.085 | [8] -0.057 | [9] 0.048 | [10] 0.149 | [11] 0.016 | [12] 0.019 | [13] 0.01 | [14] 0.058 | [15] 0.04 | [16] 0.084 | [17] -0.01 | [18] 0 | [19] 0.008 | [20] 0.045

C2CD5 isoform 4 (UniProt Q86YS7)
inactive: [1] -0.015 | [2] -0.029 | [3] 0 | [4] 0.053 | [5] -0.065 | [6] 0.03 | [7] -0.039 | [8] 0.017 | [9] -0.084 | [10] 0.002 | [11] -0.09 | [12] -0.035 | [13] 0.004 | [14] 0.037 | [15] 0.043 | [16] -0.024 | [17] -0.017 | [18] -0.016 | [19] 0.182 | [20] 0.073

C8orf76 (UniProt Q96K31)
inactive: [1] 0.048 | [2] -0.043 | [3] -0.035 | [4] 0.108 | [5] -0.083 | [6] 0.058 | [7] 0.02 | [8] -0.028 | [9] 0.004 | [10] 0.034 | [11] -0.094 | [12] 0.014 | [13] -0.083 | [14] -0.013 | [15] -0.037 | [16] 0.048 | [17] -0.091 | [18] 0.017 | [19] -0.054 | [20] 0.007

C1orf198 (UniProt Q9H425)
inactive: [1] 0.08 | [2] -0.003 | [3] 0.035 | [4] 0.007 | [5] -0.003 | [6] 0.015 | [7] 0.124 | [8] -0.021 | [9] 0.008 | [10] -0.03 | [11] 0.023 | [12] -0.025 | [13] 0.073 | [14] -0.005 | [15] 0.14 | [16] -0.023 | [17] -0.07 | [18] 0.023 | [19] -0.028 | [20] 0.047

BUB3 (UniProt O43684)
inactive: [1] 0.021 | [2] 0.013 | [3] -0.043 | [4] -0.017 | [5] -0.001 | [6] 0 | [7] 0.009 | [8] -0.028 | [9] 0.004 | [10] 0.085 | [11] -0.012 | [12] 0.019 | [13] 0 | [14] 0.013 | [15] -0.046 | [16] -0.008 | [17] 0.034 | [18] -0.027 | [19] -0.016 | [20] -0.024

C2orf49 (UniProt Q9BVC5)
inactive: [1] -0.061 | [2] -0.095 | [3] 0.041 | [4] 0.112 | [5] 0.028 | [6] -0.086 | [7] 0.15 | [8] 0.22 | [9] 0.005 | [10] -0.036 | [11] -0.082 | [12] 0.006 | [13] -0.005 | [14] -0.046 | [15] 0.139 | [16] 0.002 | [17] -0.116 | [18] 0.175 | [19] 0.02 | [20] -0.03

C2CD2 (UniProt Q9Y426)
inactive: [1] -0.018 | [2] -0.03 | [3] -0.02 | [4] 0.051 | [5] 0.101 | [6] 0.019 | [7] 0.019 | [8] 0.004 | [9] 0.085 | [10] 0.132 | [11] -0.094 | [12] 0.064 | [13] 0.094 | [14] -0.052 | [15] -0.103 | [16] 0.18 | [17] 0 | [18] 0.112 | [19] 0.048 | [20] 0.007

C3 (UniProt P01024)
inactive: [1] 0.03 | [2] 0.219 | [3] 0.087 | [4] -0.008 | [5] 0.274 | [6] 0.148 | [7] -0.002 | [8] -0.075 | [9] 0.024 | [10] -0.176 | [11] -0.057 | [12] 0.347 | [13] 0.043 | [14] 0.121 | [15] -0.092 | [16] 0.087 | [17] -0.13 | [18] -0.143 | [19] -0.1 | [20] -0.007
